Hit rate of the full screen: of about 47,000 compounds, about 200 (0.43%) were called active. The inconclusive results got no clear call from the source; some entries with a clear call stand among them for comparison.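 How the source made its calls: active means inhibition of aggregate fluorescence above about 70%, also judged a hit by eye on the cell image (limit read from the data, passing the limit was not always enough); inconclusive means no rule stated for this call; inactive means not judged a hit on image review.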
assay: clearance of mutant huntingtin inclusions, primary screen, imaging, HeLa Exon1htt(103Q)mCFP, confocal imaging (AID 853); conditions: aggregate imaging, at 1.5 µM, active compounds read high, zero = plate's median compound well;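 further: cells exposed to compound for three days before fixation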

SMILES	inhibition
COc1ccc(CCNc2oc(COc3ccccc3F)nc2C#N)cc1OC	inactive: 3.4%
O=C(Nc1nnc(/N=C/c2ccco2)s1)c1ccc(F)cc1	active: 70.6%
Cc1cc(C)c(-c2cc(C(=O)Nc3c(C)n(C)n(-c4ccccc4)c3=O)[nH]n2)c(O)c1	inconclusive: 92.5%
CCc1ccc2[nH]c(=O)c(CN(CCCO)C(=O)NCc3ccccc3)cc2c1	inconclusive: 71.9%
Cn1c(=O)c2c(nc(SCC(=O)NCc3ccc4c(c3)OCO4)n2Cc2ccc(Cl)cc2)n(C)c1=O	active: 81.2%
Cc1sc(NC(=S)NC(=O)c2ccccc2)c(C#N)c1C	inconclusive: 74.8%
CCn1nc(C(=O)OCc2c(C)noc2C)c2ccccc2c1=O	inactive: -11%
COc1cccc(NC(=O)Cn2nnc(C(=O)Nc3ccccc3)c2N)c1	inconclusive: 71.9%
Cc1ccccc1NC(=O)CSC(N)=O	inconclusive: 77.4%
CCn1c2ccccc2c2cc(NC(=O)CSc3nnc(C4CC4)n3Cc3ccco3)ccc21	inconclusive: 83%
COc1ccc(C2C(C(=O)N3CCOCC3)=C(C)NC3=C2C(=O)CC(C)(C)C3)c(OC)c1 (stereo unspecified)	inactive: -19.7%
N#C/C(=C(/O)CN1CCOCC1)c1nc2ccccc2s1	active: 77.1%
COc1cc2c(cc1OC)C(c1cc3ccccc3oc1=O)=NC(C)(C)C2	inactive: 18.5%
CC(C)CC(C(=O)OCC(=O)Nc1ncc(Cl)cc1Cl)N1C(=O)c2ccccc2C1=O (stereo unspecified)	inactive: 46.3%
Cc1cccc(-n2c(SCC(=O)Nc3nonc3C)nnc2-c2ccoc2C)c1	inactive: -42.1%
O=C(NNC1=C(C(=O)C(F)(F)F)CCC1)c1cccc(O)c1	inconclusive: 97.5%
CCC(c1nnnn1Cc1ccccc1)N(Cc1cc2cc(OC)ccc2[nH]c1=O)CC1CCCO1 (stereo unspecified)	active: 83.8%
CCOC(=O)C1CCN(c2c(NCc3ccc(C(=O)NC4CCCC4)cc3)c(=O)c2=O)CC1	inconclusive: 82.5%
Cc1ccc(C2CC(c3ccco3)n3ncnc3N2)cc1 (stereo unspecified)	inactive: 38.2%
COC(=O)c1ccc(C(=O)OC)c(NC2=NS(=O)(=O)c3ccccc32)c1	active: 75.3%
Cc1cc(C)n(C(=O)c2ccc(NC(=O)CC(C)C)cc2)n1	active: 90.3%

SMILES	inhibition
COc1ccccc1-c1cc(C(F)(F)F)nc(S(=O)(=O)CCCC(=O)N2CCCCC2C)n1 (stereo unspecified)	inactive: -75.3%
Cc1ccc2c(c1)N(CCC(=O)NC1CC1)C(=O)C(C)O2 (stereo unspecified)	inactive: 14.8%
O=C(COc1ccc(F)cc1)NCC1CCCO1 (stereo unspecified)	active: 70.6%
O=C1C=C(Nc2ccc(Cl)cc2)CC(c2ccco2)C1 (stereo unspecified)	inconclusive: 87%
Cc1ccccc1NC(=O)Nc1ccccc1C(=O)NCc1ccccc1	inactive: 27.5%
CC(C)CCNc1nc2c(c(=O)n(Cc3cccc(F)c3)c(=O)n2C)n1C	inactive: -15.9%
CCOc1nnc(C)c2c(C)n(-c3ccc(Cl)cc3)nc12	active: 74.2%
CC1CCCCN1C(=O)Nc1cccc(Cl)c1 (stereo unspecified)	inactive: 59.4%
O=C(NCc1ccccc1)c1ccc(-c2ccc(F)cc2)o1	inconclusive: 71.9%
COc1ccc2ncn(-c3ccccc3)c2c1	active: 75.4%
CC(C)CSc1nc2c(c(=O)[nH]c(=O)n2C)n1CCc1ccccc1	inactive: -17.3%
O=C(CSc1ncnc2c1cnn2-c1ccccc1)Nc1ccccc1	inconclusive: 71.2%
Cc1nc(-c2ccc(NS(C)(=O)=O)cc2)cs1	inconclusive: 82.2%
OC12CCCCC1C(c1ccc3c(c1)OCO3)N(Cc1ccccc1F)CC2 (stereo unspecified)	active: 72.9%
CN1C(=O)c2cccc(NC(=O)CCc3ccccc3)c2C1=O	inactive: -0.1%
CCN(CC)c1ccc(NC(=O)c2cccc(F)c2)c(C)c1	inconclusive: 73.4%
CC(C)C(=O)NCCSc1c[nH]c2ccccc12	inactive: 28.9%
CCCn1c(CCC(=O)O)ccc1-c1ccc(OC)cc1	inactive: -2.1%
COc1ccccc1N1CCN(C(=O)CSc2nc(C)c(Cc3ccccc3)c(=O)[nH]2)CC1	active: 79.6%
COc1cc2c(cc1OC)-c1nnnn1C(C)(C)C2	inconclusive: 74.7%
Cc1cc(NC(=O)c2cc(-c3ccncc3)nc3c(C)cccc23)no1	inactive: -140%

SMILES	inhibition
Cc1ccc(-c2nn(-c3ccccc3)cc2/C=N/NC(=O)c2ccc3c(c2)OCO3)cc1	inactive: -12.7%
C=CCn1c(N2CCCCCC2)nc2c1c(=O)[nH]c(=O)n2C	inactive: -3.5%
CCCNC(=O)Cn1c2ccccc2c2nc(=O)cc(C)n21	inconclusive: 81.6%
COc1ccccc1NC(=O)CN1CCN(CC(=O)Nc2ccc3c(c2)OCCO3)CC1	inconclusive: 75.7%
O=C(c1ccco1)N1CCN(C(c2ccc(Cl)cc2)c2nnnn2Cc2ccccc2)CC1 (stereo unspecified)	inconclusive: 81.5%
CC(=O)c1ccc(NC(=O)N2CCN(c3cccc(Cl)c3)CC2)cc1	inactive: 19.1%
COCCNc1ncnc2nc[nH]c12	inconclusive: 72.6%
CN(C)C=Nc1c(Br)cc(Br)c2nonc12	active: 90.7%
O=C(Nc1ccc(N2CCOCC2)cc1N1CCOCC1)c1ccco1	inconclusive: 75.4%
Cc1nnc(NC2=NCCC2)s1	inconclusive: 92.9%
COC(=O)CNc1c(-c2ccccn2)nc2ccc(Br)cn12	inactive: 37.7%
COc1ccc(-c2noc(-c3ccccc3C(=O)Nc3cccc(OC)c3)n2)cc1	inactive: 21.7%
COCc1cc(C)nc2sc(C(=O)OC)c(N)c12	inactive: -49.1%
COCCNC(=O)CN(c1cc(C(F)(F)F)ccc1Cl)S(C)(=O)=O	inconclusive: 91.3%
COc1ccc(NC(=O)CSc2nnc(Cn3cnc4ccccc43)n2C)cc1	inconclusive: 73.8%
CCOC(=O)c1[nH]c2cc(OC)c(OC)cc2c1NC(=O)CN(C)C1CCCCC1	inactive: -0.1%
Cc1ccc(S(=O)(=O)NCCCN2CCOCC2)cc1C	inactive: 0.6%
CCOc1ccc(-c2nc(C#N)c(NC3CC3)o2)cc1	inactive: 38.8%
COc1ccc(OC)c(-n2c(C)nc3cc(C(=O)O)ccc32)c1	active: 73.5%

Retrieved by structure from the list above (2):
SMILES	inhibition
COc1ccc(-c2noc(-c3ccccc3C(=O)Nc3cccc(OC)c3)n2)cc1	inactive: 21.7%
CN(C)C=Nc1c(Br)cc(Br)c2nonc12	active: 90.7%

Source: PubChem BioAssay AID853 (Columbia University Molecular Screening Center, 2007)
